Data source: PubChem BioAssay AID652272 (Drosophila RNAi Screening Center, 2013)

Purpose: 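Genome-wide knock-down search for components of Hedgehog signalling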 (primary screen)
Cells: Drosophila clone 8 (Cl8) cells
Knock-down reagent: long dsRNA against Drosophila genes
Measured: 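Plate reader light from a firefly reporter under a ptc promoter fragment that responds to Hedgehog, with Renilla light as transfection reference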
Scale: firefly Hh reporter signal: higher = more ptc reporter light; Renilla reference signal: higher = more Renilla control light
Rule for the call: 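Called a hit if the two-replicate mean z-score lies below -2 or above +3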
Meaning of the calls: active = hit: reporter lowered or raised; inactive = not a hit
In all, the deposit lists about 21,000 reagents; shown is an unselected part of those with a known target gene and a result. Of all reagents, 503 (2.4%) are marked active. 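Raw plate light values, not normalised; calls rest on replicate z-scores that were not deposited; hits include reporter decreases as well as increases.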 A plus sign joins genes that one reagent is predicted to hit. Not stated in the record: the amount of reagent, the time to read-out.

Target gene | amplicon | firefly Hh reporter signal, replicate 1 | firefly Hh reporter signal, replicate 2 | firefly Hh reporter signal, replicate 3 | Renilla reference signal, replicate 1 | Renilla reference signal, replicate 2 | Call
sunz (GeneID 40811) | DRSC12559 | 78645 | 1.14e5 | – | 2674 | 3193 | inactive
vig (GeneID 34885) | DRSC03630 | 1.52e5 | 6.28e5 | 82140 | 4121 | 35320 | inactive
vig (GeneID 34885) | DRSC03631 | 55208 | 32592 | – | 2221 | 1371 | inactive
Pka-C1 (GeneID 34284) | DRSC03399 | 45523 | 59588 | – | 3241 | 3732 | active
garz (GeneID 36337) | DRSC07193 | 80040 | 31863 | – | 2338 | 3058 | inactive
Gycbeta100B (GeneID 43682) | DRSC14039 | 4.65e5 | 1.85e5 | – | 23712 | 4166 | inactive
Gycbeta100B (GeneID 43682) | DRSC14040 | 4.15e5 | 1.83e5 | – | 20977 | 3556 | inactive
Gycbeta100B (GeneID 43682) | DRSC16691 | 1.25e5 | 1.31e5 | – | 768 | 3940 | inactive
LRP1 (GeneID 35799) | DRSC07238 | 82918 | 39578 | – | 2018 | 3360 | inactive
CG7742 (GeneID 33750) | DRSC03066 | 55657 | 60925 | – | 2586 | 2768 | inactive
CG13876 (GeneID 38031) | DRSC08346 | 71573 | 36804 | – | 2330 | 2732 | inactive
chinmo (GeneID 33343) | DRSC00292 | 1.11e5 | 1.55e5 | – | 4802 | 6153 | inactive
chinmo (GeneID 33343) | DRSC00485 | 2.03e5 | 1.82e5 | – | 4388 | 4377 | inactive
chinmo (GeneID 33343) | DRSC00509 | 1.33e5 | 99161 | – | 3218 | 2585 | inactive
snRNA:U1:95Cc + snRNA:U1:95Cb | DRSC13641 | 54326 | 1.75e5 | – | 12621 | 4400 | inactive
mam (GeneID 36555) | DRSC05468 | 21133 | 66710 | – | 1057 | 3249 | active
mam (GeneID 36555) | DRSC07648 | 39431 | 25825 | – | 1292 | 1872 | inactive

5 entries from above, reformatted.
Target gene	amplicon	firefly Hh reporter signal, replicate 1	firefly Hh reporter signal, replicate 2	firefly Hh reporter signal, replicate 3	Renilla reference signal, replicate 1	Renilla reference signal, replicate 2	Call
LRP1 (GeneID 35799)	DRSC07238	82918	39578		2018	3360	inactive
CG7742 (GeneID 33750)	DRSC03066	55657	60925		2586	2768	inactive
CG13876 (GeneID 38031)	DRSC08346	71573	36804		2330	2732	inactive
chinmo (GeneID 33343)	DRSC00292	1.11e5	1.55e5		4802	6153	inactive
chinmo (GeneID 33343)	DRSC00485	2.03e5	1.82e5		4388	4377	inactive

The results go on.
Target gene | amplicon | firefly Hh reporter signal, replicate 1 | firefly Hh reporter signal, replicate 2 | firefly Hh reporter signal, replicate 3 | Renilla reference signal, replicate 1 | Renilla reference signal, replicate 2 | Call
CG18063 (GeneID 34943) | DRSC01968 | 70150 | 47089 | – | 1767 | 4244 | inactive
meigo (GeneID 42510) | DRSC15877 | 4.70e5 | 63648 | – | 30872 | 438 | inactive
Shaw (GeneID 33599) | DRSC00433 | 1.86e5 | 79381 | – | 4769 | 7761 | inactive
Shaw (GeneID 33599) | DRSC00788 | 2.08e5 | 6.84e5 | 86452 | 4888 | 37329 | inactive
Mekk1 (GeneID 42253) | DRSC16302 | 94380 | 84293 | – | 4032 | 3163 | inactive
Mekk1 (GeneID 42253) | DRSC16303 | 7.62e5 | 1.34e5 | – | 39728 | 3365 | inactive
Det (GeneID 42077) | DRSC14489 | 90010 | 96021 | – | 1968 | 8020 | inactive
Mst98Ca (GeneID 47854) | DRSC16749 | 1.17e5 | 1.32e5 | – | 2272 | 3587 | inactive
CG6052 (GeneID 39971) | DRSC10574 | 96041 | – | – | 3786 | 2747 | inactive
Upf2 (GeneID 31724) | DRSC18218 | 1.61e5 | 4.37e5 | – | 3145 | 7708 | active
List (GeneID 37157) | DRSC06520 | 95138 | 47571 | – | 2468 | 3808 | inactive
CG32037 (GeneID 326183) | DRSC10363 | 59565 | 66161 | 74641 | 6288 | 5866 | inactive
Nup358 (GeneID 43041) | DRSC14410 | 1.00e5 | 65157 | – | 4324 | 1413 | inactive
Patr-1 (GeneID 42058) | DRSC14159 | 52545 | 48620 | – | 2755 | 2464 | inactive
CG4853 (GeneID 36974) | DRSC06898 | 1.28e5 | 1.07e5 | – | 5738 | 4571 | inactive
Ciao1 (GeneID 36655) | DRSC06170 | 90499 | 83216 | – | 3813 | 3181 | inactive
CG31459 (GeneID 318746) | DRSC13380 | 54842 | 2.26e5 | – | 12075 | 5424 | inactive
grn (GeneID 40962) | DRSC12666 | 44000 | – | – | 1506 | – | active
grn (GeneID 40962) | DRSC16961 | 1.35e5 | 2.06e5 | – | 5367 | 5212 | inactive
Osi6 (GeneID 40760) | DRSC12128 | 68972 | 94467 | – | 3523 | 3270 | inactive
CG43103 (GeneID 12798325) | DRSC05643 | 1.33e5 | 2.67e5 | – | 4045 | 12279 | inactive
zf30C (GeneID 34292) | DRSC03641 | 48083 | 67421 | – | 2756 | 3272 | inactive
